According to article PMC2770259:
Where two headings read alike, the source gives them in different places. These are yes or no findings as the source states them, for the method shown. Binding seen in cells or lysates may run through a third protein. A yes stands for co-enrichment or nearness to the bait. Other partners may have been found. For some of these results: A no says only that the protein was not detected with the bait. For some of these results: Where a sequence is shown, tags or fusion partners need not be part of it. Values belong to the molecule of their own block, whether it stands above or below them.

Sequences of proteins named here, by UniProt entry; tags and fusion partners are left off.
UniProt Q9UT79: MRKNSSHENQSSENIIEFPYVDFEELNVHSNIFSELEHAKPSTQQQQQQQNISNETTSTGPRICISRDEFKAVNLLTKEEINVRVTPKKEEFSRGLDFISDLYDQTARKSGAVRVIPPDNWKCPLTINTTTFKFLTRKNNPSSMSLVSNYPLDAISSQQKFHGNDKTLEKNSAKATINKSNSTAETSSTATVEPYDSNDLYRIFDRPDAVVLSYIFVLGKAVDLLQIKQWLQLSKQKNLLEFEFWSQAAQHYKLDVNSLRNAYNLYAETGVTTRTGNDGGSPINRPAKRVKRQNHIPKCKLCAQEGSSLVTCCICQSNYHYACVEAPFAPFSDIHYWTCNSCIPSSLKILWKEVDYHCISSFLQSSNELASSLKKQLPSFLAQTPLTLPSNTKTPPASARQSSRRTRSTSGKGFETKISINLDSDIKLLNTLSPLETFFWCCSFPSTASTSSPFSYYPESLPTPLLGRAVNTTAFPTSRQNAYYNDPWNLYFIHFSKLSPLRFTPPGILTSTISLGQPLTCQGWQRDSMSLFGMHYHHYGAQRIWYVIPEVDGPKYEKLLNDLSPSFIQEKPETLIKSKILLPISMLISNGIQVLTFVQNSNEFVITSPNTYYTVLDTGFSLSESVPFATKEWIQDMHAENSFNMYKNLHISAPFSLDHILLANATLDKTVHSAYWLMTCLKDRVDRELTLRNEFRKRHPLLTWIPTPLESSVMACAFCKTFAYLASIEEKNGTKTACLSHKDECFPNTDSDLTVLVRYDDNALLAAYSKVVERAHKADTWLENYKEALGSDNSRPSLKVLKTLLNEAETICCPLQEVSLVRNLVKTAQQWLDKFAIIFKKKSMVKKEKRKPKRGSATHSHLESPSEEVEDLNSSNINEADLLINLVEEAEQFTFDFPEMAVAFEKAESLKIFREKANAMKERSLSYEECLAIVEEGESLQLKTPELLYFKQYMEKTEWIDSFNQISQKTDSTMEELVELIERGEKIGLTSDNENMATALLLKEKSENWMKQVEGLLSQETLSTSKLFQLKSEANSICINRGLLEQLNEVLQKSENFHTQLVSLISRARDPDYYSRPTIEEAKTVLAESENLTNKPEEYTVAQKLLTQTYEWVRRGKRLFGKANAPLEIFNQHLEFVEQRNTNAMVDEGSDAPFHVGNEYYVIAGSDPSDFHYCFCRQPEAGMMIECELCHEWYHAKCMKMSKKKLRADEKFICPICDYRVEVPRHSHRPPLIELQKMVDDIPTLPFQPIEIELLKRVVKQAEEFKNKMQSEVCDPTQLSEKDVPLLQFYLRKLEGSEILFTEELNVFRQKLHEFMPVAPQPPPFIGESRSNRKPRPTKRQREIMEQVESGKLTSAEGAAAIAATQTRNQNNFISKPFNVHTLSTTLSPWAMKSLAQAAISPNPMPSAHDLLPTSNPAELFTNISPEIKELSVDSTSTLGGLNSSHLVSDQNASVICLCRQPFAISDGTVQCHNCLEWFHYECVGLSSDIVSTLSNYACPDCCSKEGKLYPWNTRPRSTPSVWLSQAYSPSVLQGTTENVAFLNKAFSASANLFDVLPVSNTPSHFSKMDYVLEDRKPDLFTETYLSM

How the values were obtained:
Test in all cases: affinity purification with mass spectrometry; TAP-tag purification from S. pombe strains with TAP-tagged baits (Yaf9, Swc4, Swc2, Msc1, Swr1, H2A.Z/Pht1), LC-MS/MS and Coomassie stained PAGE gels; H2A.Z-TAP also in msc1Δ and swr1Δ strains; protocol in ref. 47
Yaf9 (S. pombe) [1] = biological target: T1, Yaf9 (S. pombe) (UniProt Q10319)
T1 sequence: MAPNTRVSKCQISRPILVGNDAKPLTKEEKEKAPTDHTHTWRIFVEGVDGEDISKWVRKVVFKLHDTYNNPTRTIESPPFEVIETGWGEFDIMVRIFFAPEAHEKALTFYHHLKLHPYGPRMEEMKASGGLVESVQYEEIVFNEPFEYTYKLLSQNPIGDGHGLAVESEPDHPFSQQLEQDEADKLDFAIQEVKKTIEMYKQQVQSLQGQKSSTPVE

Swc2 (S. pombe) [2] = biological target: T2, Swc2 (S. pombe) (UniProt Q9P790)
T2 sequence: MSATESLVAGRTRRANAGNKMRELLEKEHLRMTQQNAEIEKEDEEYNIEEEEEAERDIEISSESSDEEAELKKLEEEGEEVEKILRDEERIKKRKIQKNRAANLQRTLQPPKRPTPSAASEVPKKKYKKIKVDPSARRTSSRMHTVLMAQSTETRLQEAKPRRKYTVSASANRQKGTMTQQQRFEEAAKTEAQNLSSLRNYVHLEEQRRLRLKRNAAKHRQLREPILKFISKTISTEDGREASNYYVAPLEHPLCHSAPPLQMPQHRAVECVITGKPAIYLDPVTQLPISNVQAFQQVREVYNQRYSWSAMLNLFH

Swc4 (S. pombe) [3] = biological target: T3, Swc4 (S. pombe) (UniProt O14308)
T3 sequence: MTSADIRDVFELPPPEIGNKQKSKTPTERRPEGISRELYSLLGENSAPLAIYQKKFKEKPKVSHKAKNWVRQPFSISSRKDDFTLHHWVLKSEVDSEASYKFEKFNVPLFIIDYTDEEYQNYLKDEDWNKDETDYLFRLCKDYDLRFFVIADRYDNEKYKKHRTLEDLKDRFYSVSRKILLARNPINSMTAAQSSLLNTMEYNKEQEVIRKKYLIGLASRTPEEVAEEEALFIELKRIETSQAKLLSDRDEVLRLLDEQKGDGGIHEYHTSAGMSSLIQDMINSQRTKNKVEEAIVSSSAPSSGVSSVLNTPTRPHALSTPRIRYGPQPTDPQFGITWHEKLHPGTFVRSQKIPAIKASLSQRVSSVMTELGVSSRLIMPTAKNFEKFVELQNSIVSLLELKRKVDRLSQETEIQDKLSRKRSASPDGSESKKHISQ

Yaf9 (S. pombe) [4] = biological target: T1, Yaf9 (S. pombe); remark: listed apart in the source
[5] = biological target: Msc1 (JmjC-domain protein of the Lid/Jarid1 family) (S. pombe) (UniProt Q9UT79)
Swc2 (S. pombe) [6] = biological target: T2, Swc2 (S. pombe); remark: listed apart in the source
Swc4 (S. pombe) [7] = biological target: T3, Swc4 (S. pombe); remark: listed apart in the source
[8] = biological target: T4, Swr1 (catalytic subunit of the Swr1 complex) (S. pombe) (UniProt O13682)
T4 sequence: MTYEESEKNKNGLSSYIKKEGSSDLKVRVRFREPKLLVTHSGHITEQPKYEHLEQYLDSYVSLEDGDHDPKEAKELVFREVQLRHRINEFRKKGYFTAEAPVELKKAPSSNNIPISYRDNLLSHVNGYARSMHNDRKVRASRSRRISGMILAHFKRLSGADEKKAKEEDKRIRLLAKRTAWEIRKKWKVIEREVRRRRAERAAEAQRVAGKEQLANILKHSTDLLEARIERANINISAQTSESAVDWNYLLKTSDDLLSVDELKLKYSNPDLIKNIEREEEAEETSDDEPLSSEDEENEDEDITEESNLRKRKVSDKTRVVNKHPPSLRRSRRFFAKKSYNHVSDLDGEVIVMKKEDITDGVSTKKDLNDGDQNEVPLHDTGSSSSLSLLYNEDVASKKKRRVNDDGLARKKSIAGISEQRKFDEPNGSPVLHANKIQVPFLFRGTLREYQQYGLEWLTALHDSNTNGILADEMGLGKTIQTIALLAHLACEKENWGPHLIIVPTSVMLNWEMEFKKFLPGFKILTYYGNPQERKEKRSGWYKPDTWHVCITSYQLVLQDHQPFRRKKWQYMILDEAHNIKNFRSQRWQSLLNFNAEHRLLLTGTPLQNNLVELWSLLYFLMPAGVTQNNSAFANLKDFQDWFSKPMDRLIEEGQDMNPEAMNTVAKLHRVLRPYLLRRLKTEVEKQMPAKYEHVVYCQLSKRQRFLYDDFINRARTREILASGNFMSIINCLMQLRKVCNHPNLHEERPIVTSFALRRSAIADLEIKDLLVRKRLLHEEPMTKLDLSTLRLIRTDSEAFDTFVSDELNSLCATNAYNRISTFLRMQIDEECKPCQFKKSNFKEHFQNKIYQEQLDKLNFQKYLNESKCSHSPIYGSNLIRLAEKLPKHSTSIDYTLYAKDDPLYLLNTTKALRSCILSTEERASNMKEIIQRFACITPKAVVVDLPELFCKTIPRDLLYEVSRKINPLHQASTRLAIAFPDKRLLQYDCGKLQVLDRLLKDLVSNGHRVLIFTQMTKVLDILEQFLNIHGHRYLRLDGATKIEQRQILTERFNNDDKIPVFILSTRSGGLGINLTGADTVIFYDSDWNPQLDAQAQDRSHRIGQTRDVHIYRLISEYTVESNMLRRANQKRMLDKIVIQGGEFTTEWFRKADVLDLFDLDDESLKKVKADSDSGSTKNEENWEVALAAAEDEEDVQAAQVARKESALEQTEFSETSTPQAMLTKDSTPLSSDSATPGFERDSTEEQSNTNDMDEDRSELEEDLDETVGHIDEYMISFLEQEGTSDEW

binding (Yaf9 (S. pombe) [1]): binds
binding (Swc2 (S. pombe) [2]): binds
binding (Swc4 (S. pombe) [3]): binds
Molecule: Msc1 (JmjC-domain protein of the Lid/Jarid1 family) (from UniProt Q9UT79 1-1588)

binding (Yaf9 (S. pombe) [4]): no binding
binding [5]: no binding
binding (Swc2 (S. pombe) [6]): no binding
binding (Swc4 (S. pombe) [7]): no binding
binding [8]: no binding
B1: Kap114 (importin family protein) (protein, UniProt Q10297 1-993)
chain: MVESKIIKLLEQVQSADPNSRIQAELGLRDLEKYHDFAAKLTDIASSGASVPLRQGSLIYLQRYIVHHWSPLFEQFQDGPIPDENVKKHVRETLLHLLVSLDNFTLIKAVAYAVSLIANVDYPDEWPEVVPAVLHLLQSTNENSINASLDVLDELVDESLVEEQFFIIAPQLASILYQFIFSAPPNDSMRMLQARGIKLFRSCLELIEIYKETKAEHVRVFLEQILPPWMDMFSHKFEVSLVDDRQVILPDSCGYFCIMGEIAMTLTKLRELFPSKLTPYVVTFVELVWNIIEKLLDPYIREVVFSDGLDDSAFGDKYPIRYLVELLLFVSVALQSKFVQNLFVSNTVPVPPLPPCIPLLVQYTQLPKHQIEVYESDVSEYIANEFSMDFASDTVRGAAISVLSAFEEHTTLPIQQSLREMSATYILNNEINWIYQEALLYACCSVDAASDDTYDDYLDPIYEAIKVRIDYSDAPILLLSRFFLFIGYFSESTVVASQFFQIIMNNLVNALQVDTVQYAAMKAIERFCSVGKVKPILSLQPMILEVLSQYASKSSDEALVLLVEAISSAVKLDCAKAAELGNSVIPLLFNLVATNASDPYICGIIEDTFEDIIHAANNYESMCEITLPELLQVLNQEDPIMVNIGATLLSCLIRAGPSPLPNGFVGYVLPPVYKITQIHSGDTELLQLSQEILKGLLEKDTPQLLETEISGSSGFQYILFILHQLLDKESDDSACFLVGPILLELADHASQMVDLQSILLSCIKRLAIAEQPRFIQSIIYVFAKLIVKDSLGMMHFLTSSLLNEQGLTAFEVLMTVWCDNFVYFSNFKNISIICIAMTKIYSFDSPLLDSVQVKGELISHSNRIITRSQSKLHPEEYSYVSVGEKILRLLSEEFVSLSKDAIVEEVSDDGADDWDDGPISAETFGLSANDVNELSKDEFSGVDNSEDEDNTDLQFYLLEFFKEAMKSNLHNINEVVFRLPQEEQDALVQIKEK

binding (Yaf9 (S. pombe) [4]): no binding
binding [5]: no binding
binding (Swc2 (S. pombe) [6]): no binding
binding (Swc4 (S. pombe) [7]): no binding
binding [8]: no binding
B2: Nap1.2 histone chaperone (protein, UniProt P78920 1-379)
chain: MSKGPGDFKKSWNGFAAQTPQNTPSSDVHLSKAALEKARQTLQSQLEDKSAHDEVSGLLRNNPAMLSMIEGRLSSLVGKSSGYIESLAPAVQNRITALKGLQKDCDAIQYEFRQKMLDLETKYEKKYQPIFSRRAEIIKGVSEPVDDELDHEEEIFQNNLPDPKGIPEFWLTCLHNVFLVGEMITPEDENVLRSLSDIRFTNLSGDVHGYKLEFEFDSNDYFTNKILTKTYYYKDDLSPSGEFLYDHAEGDKINWIKPEKNLTVRVETKKQRNRKTNQTRLVRTTVPNDSFFNFFSPPQLDDDESDDGLDDKTELLELDYQLGEVFKDQIIPLAIDCFLEEGDLSDFNQMDEEDSEDAYTDEEDLSSDDEEILSSEISD
